# Measured values: patent US11353463B2, “Redox-based reagents for methionine bioconjugation” (The Regents of the University of California, priority 2016, dated 2022)
# How the values were obtained:
# HeLa cell lysates [1] = test: Sites of probe labeling within a whole proteome by LC-MS/MS; set-up: species or system Human; conditions: Ox4 1 mM, 10 min, trypsin digest, X!Tandem
# HeLa cell lysates [2] = test: Reactive methionine profiling (TOP-ABPP); set-up: species or system Human; conditions: n=2
compound,measurement,setting,value
"C#CCNC(=O)N1OC1c1ccccc1 (stereo not drawn) [Ox4, 3-Phenyl-N-(prop-2-yn-1-yl)-1,2-oxaziridine-2-carboxamide]",modifications on cysteine side chains or other nucleophilic amino acids,HeLa cell lysates [1],no other modifications detected
same,number of labeled lysine residues,HeLa cell lysates [1],single
same,number of labeled methionine residues,HeLa cell lysates [1],235
same,peptides that carry the ReACT methionine modification,"HeLa cell lysates [2]; high dose, 250 μM probe",1118
same,peptides that carry the ReACT methionine modification,"HeLa cell lysates [2]; low dose, 10 μM probe",116
same,peptides that carry the ReACT methionine modification,"HeLa cell lysates [2]; medium dose, 50 μM probe",458
